# In the supplement of paper PMC3334620:
# In all, about 33,000 sequences were measured (“E-score (-0.5 to 0.5)”: median about -0.0059, highest 2% from about 0.26 on). Some of the results follow.
# Target: T1, Cin5 (UniProt P40917)
# T1 sequence: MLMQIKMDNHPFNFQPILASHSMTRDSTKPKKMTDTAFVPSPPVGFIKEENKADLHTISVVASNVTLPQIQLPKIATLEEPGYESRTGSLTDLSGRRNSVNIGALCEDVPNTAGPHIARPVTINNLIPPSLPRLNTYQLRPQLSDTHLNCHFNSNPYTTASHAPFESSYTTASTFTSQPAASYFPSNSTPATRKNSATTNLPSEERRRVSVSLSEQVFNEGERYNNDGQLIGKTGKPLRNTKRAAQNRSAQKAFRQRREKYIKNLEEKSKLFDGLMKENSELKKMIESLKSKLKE
# Assay: PBM E-score (8-mer binding enrichment) (E-score (-0.5 to 0.5)); higher = stronger / more preferred TF binding
# Settings: protein concentration: 100 nM; construct: GST-full length
# In short: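 Full-length yeast transcription factors or their DNA-binding domains, GST-tagged and expressed with PURExpress, were applied at about 100-200 nM to universal all-10-mer Agilent arrays. These arrays had been made double-stranded by primer extension on fresh or once-stripped slides. Detection used fluorescent anti-GST, normalisation used masliner, and E-scores for ungapped eight-base words pooled with reverse complements came from the Universal PBM Analysis Suite.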
row,Sequence,PBM E-score
1,CCAGCAAA,0.163
2,ATTGACAA,0.0993
3,AAATACTA,0.112
4,AAATTTGC,0.0332
5,GTCTGGTA,-0.0727
6,GGCTCGAA,-0.0888
7,TCTACCCA,0.0615
8,GATGAAGC,-0.0138
9,GAGGACCC,-0.14
10,ATAATCAG,0.285
11,CATGGGTA,-0.109
12,CGTATGAC,0.0189
13,AAAAATTC,0.13
14,ACACGTTA,-0.0689
15,AAAAGCAC,-0.188
16,ACCATAGC,0.00966
17,TAACAACA,0.179
18,CTTGTTGC,-0.0415
19,ATTAGCCG,0.0336
20,CACGTGCG,-0.142
21,CACCTCCA,-0.0922
22,ATGTAGAC,-0.131
23,ATAGTTAG,0.14
24,TAGGATGA,0.162
25,GTATTGTA,0.274

row,Sequence,PBM E-score
1,AGCTCTAA,0.00448
2,CTCAAGAG,-0.238
3,CACTAATA,0.158
4,AGACACCT,-0.048
5,AGCATGCA,0.0296
6,CCTTACCG,-0.12
7,ATATTGTA,0.151
8,CACACGGA,-0.0731
9,GGGCTACC,-0.226
10,CTGCGACA,0.0959
11,ATAGTACG,0.182
12,CAATGATC,-0.0322
13,ATTGGACA,0.17
14,AAGCCAAG,-0.06
15,CATCGATG,0.0124
16,ATACCAGG,-0.0244
17,AGATTAAC,0.0211
18,CCACGGGC,-0.182
19,AGTTTGAA,0.0821
20,CTCTCAGC,-0.237
21,CCCGCTCG,-0.134
22,ACAATTGA,0.212
23,ACGCAGAA,0.157
24,GTTTAAGA,-0.218
25,ACCGCAGC,-0.141

# Given as tab-separated lines: entries from further up.
row	Sequence	PBM E-score
16	ACCATAGC	0.00966
17	TAACAACA	0.179
18	CTTGTTGC	-0.0415
19	ATTAGCCG	0.0336

# The list goes on.

row,Sequence,PBM E-score
1,AGACTGCA,-0.166
2,AGCAGGTC,-0.052
3,CCAGGATC,-0.138
4,ATCACTCG,0.146
5,AGCTGCAG,-0.00408
6,CCTAAAGG,-0.28
7,GTTTTAGA,-0.146
8,CATCTGTC,0.0521
9,CCAGTCCA,-0.208
10,CCCAAATC,-0.123
11,AACAGGAA,0.0285
12,ATGTTAGA,-0.0834
13,CTATTATA,0.142
14,GGAGCGCC,-0.272
15,CCTCCGAC,-0.35
16,CCACTACC,-0.155
17,CCCGAGCC,-0.173
18,CTAACACA,0.064
19,GCTCCTTA,-0.122
20,TCGCCCCA,0.0796
21,AACTACGA,-0.0317
22,AAGCACTA,0.0886
23,CACTAGGA,-0.2
24,TATTGGCA,0.175
25,GTAGATTA,0.232

row,Sequence,PBM E-score
1,CTAGACAC,-0.0244
2,ATAGGCTA,-0.119
3,CCTAATTC,-0.0431
4,TGCAGGAA,0.148
5,AAAAACCG,0.0407
6,AAGACGGA,0.047
7,CTCGACCC,-0.157
8,TATCTGAA,0.015
9,ATAGGAGC,-0.157
10,AATTTCGA,0.0153
11,GAAGAGAA,-0.0163
12,CTCTTTGC,0.0175
13,AACAGTTC,0.164
14,GTTAACAA,0.17
15,ACCTCTAC,0.0319
16,GGACCCCA,0.0267
17,CGGTGCAG,-0.199
18,GAGAGGTA,-0.154
19,CAACTTTC,0.205
20,CGTAACCC,0.126
21,AATACTTC,0.121
22,ACATCGTC,0.0282
23,CATTGTCC,0.117
24,GCGCCAAA,-0.0164
25,GTCGCACA,-0.107

row,Sequence,PBM E-score
1,GCCTCCGC,-0.203
2,CCTCGGAC,-0.0927
3,ACTCGACG,0.182
4,GCCGTCCC,-0.0504
5,CCGATTAA,0.117
6,CATATGGG,0.196
7,CAAATCAC,0.00887
8,AGATGCCT,-0.145
9,AGTAAACG,0.00145
10,CGATGAAA,0.0992
11,ACGGCTTA,0.164
12,CGCACACC,-0.0711
13,AGACACGA,0.0347
14,TGACTGAA,-0.0895
15,AACTAGAG,0.00264
16,ATCTACCG,0.096
17,ACAATCTA,0.0868
18,GGGATGCA,-0.1
19,CATCTGGG,-0.0703
20,GCTTAGCC,-0.0819
21,CCGAGTGA,0.091
22,GACTCGCC,-0.306
23,GATACTCA,0.139
24,ACTAGAGG,-0.255
25,GATCTAAA,0.0626

row,Sequence,PBM E-score
1,GGGAGCGA,-0.196
2,ATCACTCA,0.135
3,TTAGGCAA,-0.083
4,CCATACGG,0.0183
5,ACAACACG,0.125
6,AGATTTAT,0.12
7,AACATAAA,0.0668
8,GGGGACGA,-0.205
9,AATTACAA,0.203
10,CCGGCTAA,-0.0334
11,CTGGGACA,-0.193
12,AACGCACT,-0.037
13,TAGCGCAA,0.102
14,GCGTATTA,0.0794
15,GTAGCGCA,0.00531
16,GGCAAGCC,-0.26
17,AAACTTCT,0.113
18,AATTTGTG,0.154
19,AAGGACAA,0.00528
20,CGGCTTAG,-0.0489
21,ACTCCCTA,-0.167
22,CCTAACAC,0.115
23,AGTACGCC,-0.271
24,ACGGTCTC,-0.227
25,ATTAGTCG,0.193

row,Sequence,PBM E-score
1,CACATCAG,-0.0698
2,GGGTAGTA,-0.108
3,CCATCGCG,0.206
4,GCATTTAA,0.151
5,GAAGTCCA,-0.133
6,AGAAGGCA,-0.123
7,CCGAGCAC,-0.0314
8,AGCGCCGC,-0.124
9,GTCGTCGA,-0.18
10,CACCCGAA,0.102
11,AATGCCGA,-0.0682
12,ACGAAATG,0.139
13,GGCGAAAA,0.0799
14,AGCAGAGA,0.0498
15,ACGCTGTA,0.0419
16,ACGTAGGA,-0.0756
17,CTTTAGAA,-0.0675
18,CTGCCGCA,-0.21
19,CTATAATC,0.194
20,GCCCAGGA,-0.178
21,TAACTATA,0.109
22,GCGGCAGC,-0.167
